Results deposited as PubChem BioAssay AID493246 (Drosophila RNAi Screening Center, 2011)
The screen tested about 21,000 reagents; this is an unselected part of those with a known target gene and a result. In the full data, 429 (2%) got an active call. 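Values are raw and not normalised between plates; calls rest on per-plate z-scores that were not deposited.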 Unmarked entries are inactive. Reagent sequences are not shown. The record does not give: the amount of reagent, the time to read-out.

Screen: 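Genome-wide search for dsRNAs that reduce cell number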 (primary screen)
Cell system: Drosophila Kc and S2R+ cells
Knock-down reagent: long dsRNA against Drosophila genes
Detection: 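Cell number per well after knock-down, printed as raw plate values; calls were based on per-plate z-scores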
Scale: Kc cell number and S2R+ cell number: higher = more cells remaining
Rule for the call: 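Counted as a hit if cell number falls by a z-score of at least 3 within its plate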

How did the screen score CG11893 [DRSC14429]?
Kc cell number, rep 1: 1.48e6; Kc cell number, rep 2: 1.60e6; S2R+ cell number, rep 1: 1.09e6; S2R+ cell number, rep 2: 1.17e6

What is on record for ncd [DRSC17012]?
Kc cell number, rep 1: 5.11e5; S2R+ cell number, rep 1: 7.11e5

For Dpit47 [DRSC04985], how do the results read?
Kc cell number, rep 1: 1.63e6; Kc cell number, rep 2: 1.64e6; S2R+ cell number, rep 1: 1.18e6; S2R+ cell number, rep 2: 1.40e6

For CG4455 [DRSC01983], what was measured?
Kc cell number, rep 1: 1.26e6; Kc cell number, rep 2: 1.28e6; S2R+ cell number, rep 1: 1.28e6; S2R+ cell number, rep 2: 1.38e6

For Nep5 [DRSC16004], what does the deposit list?
Kc cell number, rep 1: 5.15e5; S2R+ cell number, rep 1: 8.23e5

For Paip2 [DRSC14504], what does the deposit list?
Kc cell number, rep 1: 1.57e6; Kc cell number, rep 2: 1.69e6; S2R+ cell number, rep 1: 1.41e6; S2R+ cell number, rep 2: 1.45e6

With CG13829 [DRSC14679], how do the results read?
Kc cell number, rep 1: 1.45e6; Kc cell number, rep 2: 1.51e6; S2R+ cell number, rep 1: 9.68e5; S2R+ cell number, rep 2: 1.09e6

Records above whose gene name begins with N or n (2):
ncd [DRSC17012]: Kc cell number, rep 1 = 5.11e5; S2R+ cell number, rep 1 = 7.11e5
Nep5 [DRSC16004]: Kc cell number, rep 1 = 5.15e5; S2R+ cell number, rep 1 = 8.23e5

Additional reagents follow:
With Pgm1 [DRSC10490], what does the deposit list?
Kc cell number, rep 1: 1.48e6; Kc cell number, rep 2: 1.51e6; S2R+ cell number, rep 1: 1.41e6; S2R+ cell number, rep 2: 1.45e6

How did the screen score CG3124 [DRSC04339]?
Kc cell number, rep 1: 1.28e6 (active); Kc cell number, rep 2: 1.38e6; S2R+ cell number, rep 1: 9.16e5; S2R+ cell number, rep 2: 9.62e5

With CheB53a [DRSC06625], what was measured?
Kc cell number, rep 1: 1.49e6; Kc cell number, rep 2: 1.53e6; S2R+ cell number, rep 1: 1.18e6; S2R+ cell number, rep 2: 1.28e6

With COX4 [DRSC02091], how do the results read?
Kc cell number, rep 1: 1.14e6; Kc cell number, rep 2: 1.16e6; S2R+ cell number, rep 1: 1.13e6; S2R+ cell number, rep 2: 1.22e6

With CG5024 [DRSC15698], what does the deposit list?
Kc cell number, rep 1: 1.44e6; Kc cell number, rep 2: 1.46e6; S2R+ cell number, rep 1: 9.71e5; S2R+ cell number, rep 2: 1.03e6

With Lcp65Ac [DRSC11210], how do the results read?
Kc cell number, rep 1: 1.42e6; Kc cell number, rep 2: 1.38e6; S2R+ cell number, rep 1: 1.07e6; S2R+ cell number, rep 2: 1.20e6

For CG10486 [DRSC09735], how do the results read?
Kc cell number, rep 1: 1.63e6; Kc cell number, rep 2: 1.51e6; S2R+ cell number, rep 1: 1.03e6; S2R+ cell number, rep 2: 1.15e6

For CNPYb [DRSC09845], what does the deposit list?
Kc cell number, rep 1: 1.59e6; Kc cell number, rep 2: 1.61e6; S2R+ cell number, rep 1: 1.24e6; S2R+ cell number, rep 2: 1.35e6

How did the screen score CG7755 [DRSC07040]?
Kc cell number, rep 1: 1.74e6; Kc cell number, rep 2: 1.83e6; S2R+ cell number, rep 1: 1.12e6; S2R+ cell number, rep 2: 1.30e6

With CG7564 [DRSC10880], what was measured?
Kc cell number, rep 1: 1.44e6; Kc cell number, rep 2: 1.50e6; S2R+ cell number, rep 1: 1.28e6; S2R+ cell number, rep 2: 1.48e6

What is on record for rost [DRSC03603]?
Kc cell number, rep 1: 1.37e6; Kc cell number, rep 2: 1.42e6; S2R+ cell number, rep 1: 1.17e6; S2R+ cell number, rep 2: 1.17e6

What is on record for CG5612 [DRSC15844]?
Kc cell number, rep 1: 1.51e6; Kc cell number, rep 2: 1.62e6; S2R+ cell number, rep 1: 9.86e5; S2R+ cell number, rep 2: 1.14e6

Which result is listed for TwdlR [DRSC14736]?
Kc cell number, rep 1: 1.65e6; Kc cell number, rep 2: 1.75e6; S2R+ cell number, rep 1: 9.90e5; S2R+ cell number, rep 2: 1.19e6

For CG34386 [DRSC06467], how do the results read?
Kc cell number, rep 1: 1.57e6; Kc cell number, rep 2: 1.54e6; S2R+ cell number, rep 1: 8.97e5; S2R+ cell number, rep 2: 9.49e5

Which result is listed for CG34386 [DRSC06468]?
Kc cell number, rep 1: 1.54e6; Kc cell number, rep 2: 1.64e6; S2R+ cell number, rep 1: 1.20e6; S2R+ cell number, rep 2: 1.36e6
